# Source: the supplement of paper PMC6992640
# ± gives the standard deviation of the averaged measurements. This list holds what a sample rich in lowest values left over.
# Key:
# Assay in all cases: cell viability (% of vehicle); higher = less cytotoxic
# Conditions in all cases: 10 µM; 72 h
# HCI01 = system: HCI01 (cells of a triple-negative basal-like breast cancer xenograft)
# HCI03 = system: HCI03 (cells of an ER-positive luminal breast cancer xenograft)
# HCI09 = system: HCI09 (cells of a triple-negative luminal androgen receptor type breast cancer xenograft)
# HCI11 = system: HCI11 (cells of an ER-positive luminal breast cancer xenograft)
# HCI13 = system: HCI13 (cells of an ER-positive luminal breast cancer xenograft)
# HCI16 = system: HCI16 (cells of a triple-negative basal-like breast cancer xenograft)
# UCD52 = system: UCD52 (cells of a triple-negative basal-like breast cancer xenograft)
# WHIM2 = system: WHIM2 (cells of a triple-negative basal-like breast cancer xenograft)
# WHIM30 = system: WHIM30 (cells of a triple-negative basal-like breast cancer xenograft)
# 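Further: PDX cells carrying CMV promoter-driven luciferase, viability read as total photon flux per second by IVIS imaging following D-luciferin, vehicle control 0.1% DMSO.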
smiles,measurement,setting,value
Br.CN1C2CCC1CC(OC(=O)C(O)c1ccccc1)C2 (centres undefined) [Homatropine Bromide],cell viability,HCI01,133 ± 9.9
same,cell viability,HCI03,129
same,cell viability,HCI09,111 ± 11
same,cell viability,HCI11,99.8
same,cell viability,HCI13,140 ± 15
same,cell viability,HCI16,110
same,cell viability,UCD52,70.4 ± 13
same,cell viability,WHIM2,95.17 ± 0.59
same,cell viability,WHIM30,106 ± 4.9
